The values below come from PMC2175517.

Sequences of proteins named here, by UniProt entry; tags and fusion partners are left off.
UniProt O89090: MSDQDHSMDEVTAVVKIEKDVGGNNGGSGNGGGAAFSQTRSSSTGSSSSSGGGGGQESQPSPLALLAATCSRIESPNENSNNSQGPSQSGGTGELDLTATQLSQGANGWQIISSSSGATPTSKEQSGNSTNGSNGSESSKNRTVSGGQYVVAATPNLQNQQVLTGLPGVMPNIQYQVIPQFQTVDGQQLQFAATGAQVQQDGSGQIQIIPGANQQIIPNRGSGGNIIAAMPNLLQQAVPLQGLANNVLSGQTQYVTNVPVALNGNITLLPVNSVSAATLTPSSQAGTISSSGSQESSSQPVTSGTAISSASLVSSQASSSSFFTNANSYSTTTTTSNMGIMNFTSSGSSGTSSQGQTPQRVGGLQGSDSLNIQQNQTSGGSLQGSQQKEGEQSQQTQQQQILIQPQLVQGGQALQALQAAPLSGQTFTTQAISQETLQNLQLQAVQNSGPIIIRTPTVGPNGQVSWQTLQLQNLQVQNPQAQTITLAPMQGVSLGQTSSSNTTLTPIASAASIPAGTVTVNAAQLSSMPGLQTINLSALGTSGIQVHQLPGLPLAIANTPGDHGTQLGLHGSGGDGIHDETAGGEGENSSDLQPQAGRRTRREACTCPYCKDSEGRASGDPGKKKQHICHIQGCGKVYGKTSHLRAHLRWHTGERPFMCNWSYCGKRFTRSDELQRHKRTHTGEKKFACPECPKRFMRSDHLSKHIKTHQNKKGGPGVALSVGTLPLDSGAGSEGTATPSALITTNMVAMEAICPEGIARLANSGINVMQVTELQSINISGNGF
UniProt P11103: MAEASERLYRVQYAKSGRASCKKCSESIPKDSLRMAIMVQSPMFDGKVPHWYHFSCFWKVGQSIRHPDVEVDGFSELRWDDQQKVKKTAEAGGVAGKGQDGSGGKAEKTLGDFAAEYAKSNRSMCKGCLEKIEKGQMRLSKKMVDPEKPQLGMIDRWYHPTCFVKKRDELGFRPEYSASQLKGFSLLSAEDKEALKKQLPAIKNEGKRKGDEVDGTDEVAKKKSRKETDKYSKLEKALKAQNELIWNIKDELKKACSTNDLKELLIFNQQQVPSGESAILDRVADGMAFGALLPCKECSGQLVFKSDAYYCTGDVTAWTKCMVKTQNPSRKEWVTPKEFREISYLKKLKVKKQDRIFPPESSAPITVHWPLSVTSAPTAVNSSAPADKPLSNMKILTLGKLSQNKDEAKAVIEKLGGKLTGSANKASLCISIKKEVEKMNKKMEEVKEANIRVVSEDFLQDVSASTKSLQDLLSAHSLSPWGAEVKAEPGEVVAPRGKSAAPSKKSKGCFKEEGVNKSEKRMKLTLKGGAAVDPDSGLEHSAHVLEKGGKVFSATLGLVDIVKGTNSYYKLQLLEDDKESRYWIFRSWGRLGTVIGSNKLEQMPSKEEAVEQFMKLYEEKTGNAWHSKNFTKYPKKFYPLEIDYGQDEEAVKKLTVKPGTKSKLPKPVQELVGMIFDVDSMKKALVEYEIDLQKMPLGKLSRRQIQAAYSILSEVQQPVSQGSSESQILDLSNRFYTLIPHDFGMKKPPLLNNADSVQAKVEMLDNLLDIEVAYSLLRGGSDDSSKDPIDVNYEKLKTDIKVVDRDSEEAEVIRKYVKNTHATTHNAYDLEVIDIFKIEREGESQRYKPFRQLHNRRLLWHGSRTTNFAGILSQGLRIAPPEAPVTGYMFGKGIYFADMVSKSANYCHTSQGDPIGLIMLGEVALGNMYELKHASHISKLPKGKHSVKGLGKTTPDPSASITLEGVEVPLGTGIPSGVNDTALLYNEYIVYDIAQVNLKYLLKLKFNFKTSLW

For test [1], the target named is Transcription factor Sp1 (mouse (endogenous in PARP-1+/+ embryonic fibroblasts)) (UniProt O89090). Put plainly: co-IP; as the Sp1 Ab precipitation from nuclear extract of PARP-1+/+ cells, with 100 ug/ml ethidium bromide in the reaction mixture to exclude bridging by DNA.
Test [2] has the same target. Put plainly: co-IP; Sp1 precipitated with Sp1 Ab (sc-59) and protein A-Sepharose from about 300 ug nuclear extract of PARP-1+/+ cells, overnight at 4°C, binding buffer (10 mM Tris-HCl, 20 mM MgCl2, 150 mM NaCl, 1 mM DTT, 10% glycerol, 1 mM PMSF); blot with PARP-1 Ab C-2-10; also with cells grown with H2O2 or PJ34 (interaction not altered).

These are yes or no findings as the source states them, for the method shown. Binding seen in cells or lysates may run through a third protein. Some results given as binding are weak or reduced against the parent protein; the word gives no strength.

As to “Poly(ADP-ribose) polymerase-1 (PARP-1) (from UniProt P11103 1-1013) (enzyme)”, the binding result in test [1] and in test [2] was “binds” throughout.
